No dose or concentration is given here for some results. Some values come without a unit; they compare only within their column.
Assay: Plasma lipid mediator profiling in RA patients 6 months after DMARD treatment initiation
Format: in vivo, human
Conditions: 6 months after treatment initiation

| Compound | Peripheral blood lipid mediator profile after 6 months of DMARD treatment, DMARD Non-Responders, Mean ± SEM | Peripheral blood lipid mediator profile after 6 months of DMARD treatment, DMARD Responders, Mean ± SEM |
| --- | --- | --- |
| CC/C=C\C[C@H](O)[C@@H](/C=C/C=C/C=C\C/C=C\C/C=C\CCC(=O)O)SC[C@H](N)C(=O)O [PCTR3] | 0.00 ± 0.00 | 0.00 ± 0.00 |
| CC/C=C\C[C@H](O)/C=C/C=C\C/C=C\C/C=C\C=C\[C@@H](O)CCC(=O)O [RvD6] | 0.55 ± 0.16 | 0.52 ± 0.10 |
| CC/C=C\C[C@H](O)/C=C/C=C\C[C@@H](O)/C=C/C=C/C=C\[C@@H](O)CCC(=O)O [RvD3] | 0.02 ± 0.02 | 0.13 ± 0.05 |
| CCCCC[C@H](O)/C=C/[C@@H]1[C@@H](C/C=C\CCCC(=O)O)[C@@H](O)C[C@H]1O [PGF2a] | 13.45 ± 3.42 | 11.24 ± 2.30 |
| CC/C=C\C/C=C\C=C\C(O)C(O)/C=C/C=C\C(O)CCCCCC(=O)O (stereo not drawn) [RvT2] | 0.16 ± 0.10 | 0.04 ± 0.04 |
| CCCCC[C@H](O)/C=C/[C@H]1OC(O)C[C@H](O)[C@@H]1C/C=C\CCCC(=O)O (stereo partly drawn) [TXB2] | 168.15 ± 85.85 | 190.70 ± 72.02 |
| CC/C=C\C/C=C\C[C@H](O)\C=C/C=C/C=C/[C@H](O)CCCCCC(=O)O [MaR1n-3 DPA] | 0.10 ± 0.07 | 0.02 ± 0.02 |
| CCC(O)/C=C/C=C\C=C\C(O)C/C=C\C=C\C(O)CCCCCC(=O)O (stereo not drawn) [RvT1] | 0.23 ± 0.12 | 0.34 ± 0.13 |
| CCCCC[C@H](O)/C=C/C=C\C/C=C\C=C\[C@@H](O)CCCC(=O)O [5S,15S-diHETE] | 26.54 ± 3.89 | 26.99 ± 7.61 |
| CC/C=C\C[C@H](O)[C@H](O)/C=C/C=C/C=C\C=C\[C@@H](O)C/C=C\CCC(=O)O [RvD2] | 0.18 ± 0.13 | 0.97 ± 0.44 |
| CC/C=C\C/C=C\C[C@H](O)/C=C/C=C\C=C\[C@@H](O)C/C=C\CCC(=O)O [7S,14S-diHDHA] | 2.79 ± 0.69 | 2.21 ± 0.78 |
| CC/C=C\C[C@H](O)/C=C/C=C\C=C\[C@@H](O)C/C=C\C/C=C\CCC(=O)O [PDX] | 9.23 ± 3.38 | 0.92 ± 0.36 |
| CCCCC/C=C\C\C=C/C=C/C=C/[C@@H](SC[C@H](NC(=O)CC[C@H](N)C(=O)O)C(=O)NCC(=O)O)[C@@H](O)CCCC(=O)O [LTC4] | 20.10 ± 6.85 | 13.21 ± 4.65 |
| CCCCC[C@@H](O)[C@H](O)/C=C/C=C/C=C\C=C\[C@@H](O)CCCC(=O)O [15R-LXB4] | 9.37 ± 1.39 | 5.11 ± 0.60 |
| CC[C@H](O)C(O)/C=C/C=C/C=C\C/C=C\C/C=C\CCCC(=O)O (stereo partly drawn) [RvE3] | 0.90 ± 0.23 | 0.87 ± 0.26 |
| CC/C=C\C[C@@H](O)/C=C/C=C\C=C\C=C\[C@@H](O)[C@@H](O)C/C=C\CCC(=O)O [17R-RvD1] | 0.27 ± 0.13 | 0.13 ± 0.07 |
| CC/C=C\C/C=C\C[C@H](O)[C@H](O)/C=C/C=C/C=C\C/C=C\CCC(=O)O [MaR2] | 0.00 ± 0.00 | 0.64 ± 0.38 |
| CCCCC/C=C\C[C@@H](O)/C=C/C=C/C=C/[C@@H](O)CCCC(=O)O [6-trans-LTB4] | 5.35 ± 3.63 | 1.67 ± 0.28 |

| Compound | Peripheral blood lipid mediator profile after 6 months of DMARD treatment, DMARD Non-Responders, Mean ± SEM | Peripheral blood lipid mediator profile after 6 months of DMARD treatment, DMARD Responders, Mean ± SEM |
| --- | --- | --- |
| O=C(O)CCCC/C=C\C[C@@H](O)/C=C/C=C/C=C\[C@@H](O)CCCC(=O)O [20-COOH-LTB4] | 0.42 ± 0.33 | 0.16 ± 0.03 |
| CC/C=C\C/C=C\C=C\C(O)C/C=C\C=C\C(O)CCCCCC(=O)O (stereo not drawn) [RvT4] | 0.93 ± 0.27 | 0.31 ± 0.09 |
| CC/C=C\C[C@H](O)/C=C/C=CC=CC=CC(O)[C@@H](O)CCCCCC(=O)O (stereo partly drawn) [RvD1n-3 DPA] | 1.02 ± 0.27 | 1.19 ± 0.31 |
| O=C(O)CCC[C@H](O)\C=C/C=C/C=C/[C@H](O)C/C=C\CCCCCO [20-OH-LTB4] | 42.62 ± 18.36 | 24.47 ± 7.22 |
| CC/C=C\C[C@H](O)[C@@H](/C=C/C=C/C=C\C/C=C\C/C=C\CCC(=O)O)SC[C@H](N)C(=O)NCC(=O)O [PCTR2] | 0.05 ± 0.05 | 0.39 ± 0.14 |
| CC/C=C\C[C@H](O)/C=C/C=C\C=C\C=C\[C@@H](O)[C@@H](O)C/C=C\CCC(=O)O [RvD1] | 0.60 ± 0.19 | 0.09 ± 0.06 |
| CCCCC[C@H](O)[C@H](O)/C=C/C=C/C=C\C=C\[C@@H](O)CCCC(=O)O [LXB4] | 0.36 ± 0.23 | 0.17 ± 0.08 |
| CC/C=C\C[C@H](O)/C=C\C=C\C/C=C/C=C/C=C/C(O)[C@@H](O)CCC(=O)O (stereo partly drawn) [RvD4] | 0.93 ± 0.26 | 1.38 ± 0.41 |
| O=C(O)CC/C=C\C[C@@H](O)/C=C/C=C/C=C\[C@@H](O)C/C=C\C/C=C\CCO [22-OH-MaR1] | 2.07 ± 1.78 | 2.21 ± 0.95 |
| CC/C=C\CC(O)C(O)/C=C/C=CC=CC=CC(O)CCCCCC(=O)O (stereo not drawn) [RvD2n-3 DPA] | 1.68 ± 0.58 | 1.54 ± 0.27 |
| CCCCC[C@H](O)/C=C/[C@H]1C(=O)C[C@H](O)[C@@H]1C/C=C\CCCC(=O)O [PGD2] | 12.26 ± 5.93 | 7.48 ± 1.87 |
| CCCCC/C=C\C[C@@H](O)/C=C/C=C/C=C\[C@@H](O)CCCC(=O)O [LTB4] | 108.07 ± 50.98 | 52.21 ± 10.73 |
| CC/C=C\C[C@H](O)[C@@H](/C=C/C=C/C=C\C/C=C\C/C=C\CCC(=O)O)SC[C@H](NC(=O)CC[C@H](N)C(=O)O)C(=O)NCC(=O)O [PCTR1] | 0.00 ± 0.00 | 2.25 ± 1.59 |
| CC/C=C\C[C@H](O)/C=C/C=C\C/C=C\C=C\[C@@H](O)C/C=C\CCC(=O)O [RvD5] | 0.32 ± 0.11 | 0.30 ± 0.12 |
| CC[C@@H](O)/C=C/C=C\C/C=C\C/C=C\C=C\[C@@H](O)CCCC(=O)O [RvE2] | 3.62 ± 1.44 | 5.26 ± 1.02 |
| CCCCC[C@H](O)/C=C/[C@H]1[C@H](O)CC(=O)[C@@H]1C/C=C\CCCC(=O)O [PGE2] | 11.29 ± 4.59 | 11.10 ± 3.55 |
| CC/C=C\C[C@@H](O)/C=C/C=C\C[C@@H](O)/C=C/C=C/C=C\[C@@H](O)CCC(=O)O [17R-RvD3] | 0.10 ± 0.07 | 0.07 ± 0.04 |
| CCCCC/C=C\C[C@H](O)/C=C/C=C\C=C\[C@@H](O)CCCC(=O)O [5S,12S-diHETE] | 0.85 ± 0.33 | 1.57 ± 0.69 |

Reference: US12681015B2, “Methods for predicting patient response to DMARDs” (Queen Mary University of London, priority 2019, dated 2026)
